# Assay results: paper PMC8719622
# Amino acid sequences for entries named in this document (tags omitted).
# UniProt Q9UGL1: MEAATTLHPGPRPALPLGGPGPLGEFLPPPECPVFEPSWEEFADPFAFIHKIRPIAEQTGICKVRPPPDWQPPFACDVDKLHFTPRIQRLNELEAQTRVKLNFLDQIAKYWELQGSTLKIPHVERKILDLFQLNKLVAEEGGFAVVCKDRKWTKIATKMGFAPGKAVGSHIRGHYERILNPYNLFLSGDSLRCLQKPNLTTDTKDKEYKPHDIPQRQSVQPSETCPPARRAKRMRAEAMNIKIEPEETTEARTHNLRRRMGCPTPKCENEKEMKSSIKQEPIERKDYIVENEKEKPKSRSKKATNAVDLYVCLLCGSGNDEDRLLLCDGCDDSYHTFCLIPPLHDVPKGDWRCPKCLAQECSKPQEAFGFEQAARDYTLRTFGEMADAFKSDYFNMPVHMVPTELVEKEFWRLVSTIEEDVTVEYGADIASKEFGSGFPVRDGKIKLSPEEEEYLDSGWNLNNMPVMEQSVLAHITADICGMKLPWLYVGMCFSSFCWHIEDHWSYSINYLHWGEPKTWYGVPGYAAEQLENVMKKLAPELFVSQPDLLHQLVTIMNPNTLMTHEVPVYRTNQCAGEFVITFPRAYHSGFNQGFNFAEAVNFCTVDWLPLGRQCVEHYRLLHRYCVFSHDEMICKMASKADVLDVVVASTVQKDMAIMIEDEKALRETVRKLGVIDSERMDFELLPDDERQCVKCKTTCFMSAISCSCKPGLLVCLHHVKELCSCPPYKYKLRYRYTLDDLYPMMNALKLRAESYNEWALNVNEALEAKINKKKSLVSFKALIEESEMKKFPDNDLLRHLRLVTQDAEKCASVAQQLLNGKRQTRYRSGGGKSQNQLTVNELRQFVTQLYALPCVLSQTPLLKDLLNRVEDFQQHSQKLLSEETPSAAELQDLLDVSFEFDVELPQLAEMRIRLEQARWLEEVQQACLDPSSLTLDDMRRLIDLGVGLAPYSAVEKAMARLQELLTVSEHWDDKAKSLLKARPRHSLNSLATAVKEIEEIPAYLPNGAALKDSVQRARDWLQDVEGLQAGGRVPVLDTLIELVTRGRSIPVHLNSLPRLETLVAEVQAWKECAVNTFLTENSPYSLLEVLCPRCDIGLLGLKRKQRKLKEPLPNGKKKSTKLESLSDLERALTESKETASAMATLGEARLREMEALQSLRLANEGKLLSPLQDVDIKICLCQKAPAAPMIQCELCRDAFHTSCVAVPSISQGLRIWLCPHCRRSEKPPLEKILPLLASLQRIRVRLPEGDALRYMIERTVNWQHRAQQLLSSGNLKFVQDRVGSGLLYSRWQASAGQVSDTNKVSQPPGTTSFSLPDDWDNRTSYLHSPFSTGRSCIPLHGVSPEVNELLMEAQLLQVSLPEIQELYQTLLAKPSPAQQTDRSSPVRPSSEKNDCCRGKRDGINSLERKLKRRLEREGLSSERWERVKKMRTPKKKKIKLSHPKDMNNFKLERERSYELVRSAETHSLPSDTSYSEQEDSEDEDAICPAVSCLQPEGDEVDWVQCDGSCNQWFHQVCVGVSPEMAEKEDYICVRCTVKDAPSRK
# These are yes or no findings as the source states them, for the method shown. Binding seen in cells or lysates may run through a third protein. Some results given as binding are weak or reduced against the parent protein; the word gives no strength. Where a sequence is shown, tags or fusion partners need not be part of it.
# B1: HA-PIAS4 (protein inhibitor of activated STAT 4) (protein, UniProt Q8N2W9 1-510)
# chain: MAAELVEAKNMVMSFRVSDLQMLLGFVGRSKSGLKHELVTRALQLVQFDCSPELFKKIKELYETRYAKKNSEPAPQPHRPLDPLTMHSTYDRAGAVPRTPLAGPNIDYPVLYGKYLNGLGRLPAKTLKPEVRLVKLPFFNMLDELLKPTELVPQNNEKLQESPCIFALTPRQVELIRNSRELQPGVKAVQVVLRICYSDTSCPQEDQYPPNIAVKVNHSYCSVPGYYPSNKPGVEPKRPCRPINLTHLMYLSSATNRITVTWGNYGKSYSVALYLVRQLTSSELLQRLKTIGVKHPELCKALVKEKLRLDPDSEIATTGVRVSLICPLVKMRLSVPCRAETCAHLQCFDAVFYLQMNEKKPTWMCPVCDKPAPYDQLIIDGLLSKILSECEDADEIEYLVDGSWCPIRAEKERSCSPQGAILVLGPSDANGLLPAPSVNGSGALGSTGGGGPVGSMENGKPGADVVDLTLDSSSSSEDEEEEEEEEEDEDEEGPRPKRRCPFQKGLVPAC
# Key:
# [1] = molecular target: FLAG-KDM5B (lysine-specific demethylase 5B) (UniProt Q9UGL1); test: proximity ligation; Duolink in situ PLA in fixed, permeabilised HEK293T co-transfected with FLAG-KDM5B and HA-PIAS4; mouse anti-FLAG and rabbit anti-PIAS4; red fluorescent spots
# [2] = molecular target: FLAG-KDM5B (lysine-specific demethylase 5B) (UniProt Q9UGL1); test: co-IP; HEK293T co-transfected with FLAG-KDM5B and HA-PIAS4; lysis in Triton buffer (50 mM Tris-HCl pH 7.4, 150 mM NaCl, 1% Triton X-100); FLAG or HA antibody (IgG as negative control), protein A/G sepharose, the other tag by Western blot; under normoxia and under hypoxia (1% O2), interaction enhanced by hypoxia
binder,measurement,setting,value
B1,binding,[1],binds
same,binding,[2],binds
